PubChem BioAssay AID248 (DTP/NCI, 2004)
The list shows only some results of the screen, not a fair sample: it gathers tests that were run many times, whatever their T/C, doses with no T/C, and many T/C values between a quarter and a half above the control. Other doses and runs of a compound stand elsewhere. T/C is the treated group as % of the vehicle group. Some entries give survivors of the animals treated and no T/C: the source holds a T/C of zero for them, seemingly a mark for toxic or unscored doses. Some doses without a T/C left all or most animals alive at the check, yet need not have been tolerated: the source hardly ever lists a survival T/C far under the control, and the zero likely stands for such cases as well. Counts of survivors are from the toxicity check (mostly the fifth day) where no day follows; animals may have died later. Schedule codes are those of the source, read here as Q, the interval in days (D) or hours (H), X, the number of doses. Some doses were run more than once; the values are given in rising order. Some schedules carry Z or #; the key to these is not given. Signs of the kind (2×) give the number of equal values in this list. Where survival is the endpoint, this PubChem deposit counts one and a half times the control or more as active, and values a quarter to a half above the control carry no call in these data; other NCI protocols may use other cut-offs. Some T/C values carry the count of animals alive at the toxicity check (mostly the fifth day); where none is given, no animal had died by that day.

Test system: L1210 leukemia ip in BDF1 mice, survival T/C
Test: NCI In Vivo Anticancer Drug Screen. Data for tumor model L1210 Leukemia (intraperitoneal) in B6D2F1 (BDF1) mice
Conditions: T/C endpoint: mean survival time, higher T/C = longer survival
[1] = dose: 400.0 mg/kg/injection, schedule: Q04DX003 (ip), vehicle: saline with Tween-80
[2] = dose: 200.0 mg/kg/injection, schedule: Q01DX005 (ip), vehicle: saline
[3] = dose: 50.0 mg/kg/injection, schedule: Q04DX003 (ip), vehicle: saline with Tween-80
[4] = dose: 400.0 mg/kg/injection, schedule: Q01DX001 (ip), vehicle: saline
[5] = dose: 100.0 mg/kg/injection, schedule: Q01DX009 (ip), vehicle: Klucel (hydroxypropylcellulose) (HPC)
[6] = dose: 25.0 mg/kg/injection, schedule: Q01DX Z (ip), vehicle: saline
[7] = dose: 400.0 mg/kg/injection, schedule: Q04DX002 (ip), vehicle: saline with Tween-80
[8] = dose: 100.0 mg/kg/injection, schedule: Q04DX003 (ip), vehicle: saline
[9] = dose: 200.0 mg/kg/injection, schedule: Q04DX003 (ip), vehicle: saline
[10] = dose: 400.0 mg/kg/injection, schedule: Q04DX003 (ip), vehicle: saline

With `CSc1cc(-c2ccc(Cl)cc2)s[s+]1` the survivor count (dose: 100.0 mg/kg/injection, schedule: Q01DX009 (ip), vehicle: saline with Tween-80) was 2 of 6, the survivor count (dose: 200.0 mg/kg/injection, schedule: Q04DX003 (ip), vehicle: saline with Tween-80) was 0 of 6 and the survivor count [1] was 1 of 6.
For `O=C(O)C(Cc1ccccc1)NC(=O)C(F)(F)F` (stereo not drawn), the survivor count (dose: 400.0 mg/kg/injection, schedule: Q04DX003 (ip), vehicle: other) was 0 of 6.
`C1CC2(CCN1)SSC1(CCNCC1)S2` was tested, and the survivor count (dose: 400.0 mg/kg/injection, schedule: Q01DX009 (ip), vehicle: saline) was 0 of 6.
In the case of `NC(=O)OCC1OC(n2ccc(=O)[nH]c2=O)C(O)C1O` (stereo not drawn), the T/C [2] is reported as 125 % of control [4 of 6 alive].
`C1=Cc2ccccc2/C1=C/c1cccc(/C=C2\C=Cc3ccccc32)c1` was tested, and the survivor count [3] was 6 of 6.
For `NC1=NC(CCc2ccccc2)N(c2ccc3ccccc3c2)C(N)=N1` (stereo not drawn), the survivor count (dose: 18.8 mg/kg/injection, schedule: Q01DX009 (ip), vehicle: saline sonified) was 0 of 6, the survivor count (dose: 37.5 mg/kg/injection, schedule: Q01DX001 (ip), vehicle: saline) was 1 of 6 and the survivor count (dose: 75.0 mg/kg/injection, schedule: Q01DX001 (ip), vehicle: saline) was 0 of 6.
`CN(C(=O)C1C(C(=O)O)C2(Cl)C(Cl)=C(Cl)C1(Cl)C2(Cl)Cl)C1CCCCC1` (stereo not drawn) was tested, and the survivor count (dose: 400.0 mg/kg/injection, schedule: Q04DX002 (ip), vehicle: Klucel (hydroxypropylcellulose) (HPC)) was 3 of 3.
In the case of `O=[N+]([O-])c1cccc([I+]c2ccccc2)c1`, the survivor count [4] is reported as 0 of 4.
`CN(CCO)N=Nc1ccccc1Cl` was tested, and the survivor count (dose: 12.5 mg/kg/injection, schedule: Q04DX003 (ip), vehicle: other) was 0 of 6, the survivor count (dose: 25.0 mg/kg/injection, schedule: Q04DX003 (ip), vehicle: other) was 3 of 6 and 6 of 6 and the survivor count (dose: 50.0 mg/kg/injection, schedule: Q04DX003 (ip), vehicle: other) was 0 of 6 and 6 of 6. For the same molecule, the survivor count (dose: 100.0 mg/kg/injection, schedule: Q01DX009 (ip), vehicle: other) was 1 of 6, the survivor count (dose: 100.0 mg/kg/injection, schedule: Q04DX003 (ip), vehicle: other) was 0 of 6 and 6 of 6 and the survivor count (dose: 200.0 mg/kg/injection, schedule: Q01DX009 (ip), vehicle: other) was 0 of 6. The survivor count (dose: 200.0 mg/kg/injection, schedule: Q04DX003 (ip), vehicle: other) was 3 of 6 and the survivor count (dose: 400.0 mg/kg/injection, schedule: Q01DX009 (ip), vehicle: other) was 0 of 6.
With `OCC1OC(n2cnc3c(=S)nc(NO)[nH]c32)C(O)C1O` (stereo not drawn) the T/C (dose: 25.0 mg/kg/injection, schedule: Q01DX005 (ip), vehicle: saline) was 129 % of control and the survivor count [2] was 5 of 6.
For `CCN(C(C)=O)c1ccc(S(=O)(=O)Cl)cc1`, the survivor count [1] was 1 of 6.
In the case of `CCO/C=C1\SC(=S)N(c2ccccc2C)C1=O`, the survivor count [5] is reported as 3 of 6 and the survivor count (dose: 400.0 mg/kg/injection, schedule: Q01DX009 (ip), vehicle: Klucel (hydroxypropylcellulose) (HPC)) is reported as 0 of 6.
`N#[N+]c1ccccc1-c1nc(N)nc(N)n1` was tested, and the survivor count (dose: 200.0 mg/kg/injection, schedule: Q01DX001 (ip), vehicle: saline) was 0 of 6 and the survivor count [4] was 0 of 6.
For `O=C(Nc1cccc(C2=NCCCN2)c1)Nc1ccc(NC(=O)Nc2cccc(C3=NCCCN3)c2)c(Cl)c1`, the T/C (dose: 1.87 mg/kg/injection, schedule: Q01DX Z (ip), vehicle: carboxymethylcellulose (CMC)) was 142 % of control, the T/C (dose: 15.0 mg/kg/injection, schedule: Q01DX Z (ip), vehicle: carboxymethylcellulose (CMC)) was 143 % of control and the T/C (dose: 18.0 mg/kg/injection, schedule: Q01DX001 (ip), vehicle: other) was 141 % of control. For the same molecule, the survivor count (dose: 30.0 mg/kg/injection, schedule: Q01DX Z (ip), vehicle: carboxymethylcellulose (CMC)) was 6 of 6, the survivor count (dose: 62.0 mg/kg/injection, schedule: Q01DX Z (ip), vehicle: carboxymethylcellulose (CMC)) was 0 of 6 and the survivor count (dose: 90.0 mg/kg/injection, schedule: Q01DX001 (ip), vehicle: carboxymethylcellulose (CMC)) was 1 of 10. For the same molecule, the survivor count (dose: 90.0 mg/kg/injection, schedule: Q01DX001 (ip), vehicle: other) was 0 of 10, the survivor count (dose: 125.0 mg/kg/injection, schedule: Q01DX Z (ip), vehicle: carboxymethylcellulose (CMC)) was 0 of 6 and the survivor count (dose: 250.0 mg/kg/injection, schedule: Q01DX Z (ip), vehicle: carboxymethylcellulose (CMC)) was 0 of 6. For the same molecule, the survivor count (dose: 500.0 mg/kg/injection, schedule: Q01DX Z (ip), vehicle: carboxymethylcellulose (CMC)) was 0 of 6.
In the case of `O=C1C=C(Nc2ccc(Cl)cc2)C(=O)c2ccccc21`, the survivor count (dose: 150.0 mg/kg/injection, schedule: Q01DX001 (ip), vehicle: carboxymethylcellulose (CMC)) is reported as 6 of 6.
`CCCCN=C(NCCCC)OCCCC` was tested, and the survivor count [6] was 0 of 6.
In the case of `Cn1cc(NC(=O)c2cc(NC(=O)CN=C(N)N)cn2C)cc1C(=O)NCCC(=N)N`, the survivor count [6] is reported as 6 of 6 and the survivor count (dose: 50.0 mg/kg/injection, schedule: Q01DX Z (ip), vehicle: saline) is reported as 0 of 6.
With `CC(=O)NC1CCC(/C=C(\C#N)C2CCC(C)CC2)CC1` (stereo not drawn) the survivor count [7] was 3 of 3.
In the case of `CCN(C(=O)Nc1ccc(OC)cc1)c1ccccc1C`, the survivor count [5] is reported as 6 of 6.
With `NNP(=O)(N1CCCCC1)N1CCCCC1` the survivor count [7] was 0 of 3.
For `CC(C(=O)N1c2ccccc2Sc2ccccc21)[N+](C)(C)C` (stereo not drawn), the survivor count (dose: 100.0 mg/kg/injection, schedule: Q01DX009 (ip), vehicle: saline) was 3 of 6, the survivor count [8] was 2 of 6 and the survivor count [9] was 0 of 6 (2×). For the same molecule, the survivor count [10] was 0 of 6 and 1 of 6.
In the case of `Nc1ncnc(N)c1NC(=O)c1cccc(Br)c1`, the survivor count [3] is reported as 1 of 6 and the survivor count (dose: 100.0 mg/kg/injection, schedule: Q04DX003 (ip), vehicle: saline with Tween-80) is reported as 0 of 6.
For `NC(N)=N/N=C/c1ccc2c(c1)CCC2`, the survivor count [8] was 0 of 6, the survivor count [9] was 0 of 6 and the survivor count [10] was 0 of 6.
In the case of `O=C(Nc1cccc2ccccc12)SCc1ccccc1`, the survivor count (dose: 200.0 mg/kg/injection, schedule: Q04DX002 (ip), vehicle: Klucel (hydroxypropylcellulose) (HPC)) is reported as 3 of 3.
For `CN(N=O)C(=O)C(=O)N(C)N=O`, the survivor count (dose: 26.0 mg/kg/injection, schedule: Q01DX001 (ip), vehicle: other) was 5 of 6, the survivor count (dose: 40.0 mg/kg/injection, schedule: Q01DX001 (ip), vehicle: other) was 6 of 6 and the survivor count (dose: 60.0 mg/kg/injection, schedule: Q01DX001 (ip), vehicle: other) was 1 of 6. The survivor count (dose: 93.0 mg/kg/injection, schedule: Q01DX001 (ip), vehicle: other) was 0 of 6, the survivor count (dose: 187.0 mg/kg/injection, schedule: Q01DX001 (ip), vehicle: other) was 0 of 6 and the survivor count (dose: 250.0 mg/kg/injection, schedule: Q01DX001 (ip), vehicle: other) was 0 of 6. For the same molecule, the survivor count (dose: 375.0 mg/kg/injection, schedule: Q01DX001 (ip), vehicle: other) was 0 of 6, the survivor count (dose: 500.0 mg/kg/injection, schedule: Q01DX001 (ip), vehicle: other) was 0 of 6 and the survivor count (dose: 750.0 mg/kg/injection, schedule: Q01DX001 (ip), vehicle: other) was 0 of 6.
